Assay results

From PubChem BioAssay record AID1224904 (Broad Institute, 2016).

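Selective DUX4 reporter inhibition in doxycycline-induced 293T-iDUX4 cells, scored as Gaussia percent activity minus Italica percent activity, after a 24-hour treatment.
The test concentration is not given here.
Percent difference between the Gaussia and Italica channels; more negative values mean more selective suppression of the DUX4 reporter, and higher values mean less activity.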

Values are in %.
The controls that fix the scale are not given here.
Common to all entries: measured here: selective DUX4 reporter inhibition.
Part of the compounds only, not a random draw; the main read-out is not listed here.

SMILES	Gaussia minus Italica difference (%)
N#Cc1cccc(-c2ccc(C3[C@@H]4CN(C(=O)c5ccc6c(c5)OCO6)C[C@H]3N4)cc2)c1 (some centres unmarked)	-8.012
O=C(c1cccc(F)c1)N1CCCCN2[C@H](C1)[C@@H](c1ccc(-c3ccccc3)cc1)[C@@H]2CO	-8.331
COc1ccc2c3c(n(C)c2c1)[C@@H](CO)N(C)CC31CCN(S(=O)(=O)c2cccc(F)c2)CC1	-8.324
Fc1cccc(-c2ccc(C3[C@@H]4CN(Cc5cccnc5)C[C@H]3N4)cc2)c1 (some centres unmarked)	-21.43
COc1ccc2c3c(n(C)c2c1)[C@H](CO)N(CC1CCOCC1)CC31CN(C(=O)c2cccc(F)c2)C1	-24.46
O=C(c1ccccc1F)N1CC(=O)N2[C@H](C1)[C@@H](c1ccc(C#Cc3ccccc3)cc1)[C@@H]2CO	3.093
O=C(C[C@H]1CC[C@H]2[C@@H](COC[C@@H](O)CN2Cc2cc(F)ccc2F)O1)N[C@H]1CCN(Cc2ccccc2)C1	-10.28
COc1cc(CN2CC3(CN(C(=O)c4ccc5c(c4)OCO5)C3)c3c(n(C)c4cc(OC)ccc34)[C@@H]2CO)cc(OC)c1	-5.118
CN1c2ccc(-c3cccc(C#N)c3)cc2[C@@H]2[C@@H](CCN2C(=O)c2cccc(F)c2)[C@@H]1CO	-10.66
C[C@@H]1CN([C@H](C)CO)C(=O)CCCn2nncc2CO[C@@H]1CN(C)Cc1ccc(-c2ccccc2)cc1	-6.541
CO[C@@H]1CN(C)C(=O)c2cc(NC(=O)C3CCCCC3)ccc2OC[C@H](C)N(Cc2cccnc2)C[C@@H]1C	-14.33
C[C@H](NC(=O)N(C)C[C@H]1OCc2ccccc2-c2c(n(C)c3ccccc23)C(=O)N([C@@H](C)CO)C[C@@H]1C)c1ccccc1	-5.493
O=C(Cc1ccccn1)NCC[C@@H]1CC[C@H](NC(=O)Nc2ccc(C(F)(F)F)cc2)[C@@H](CO)O1	0.5189
CN1c2ccc(-c3ccccc3)cc2[C@H]2[C@H](CCN2C(=O)c2ccccc2)[C@@H]1CO	14.19
CCCN1[C@H](C(=O)N[C@H](C)c2ccccc2)[C@@H](CO)[C@@H]2Cn3c(ccc(-c4cccc(F)c4)c3=O)[C@@H]21	-4.475
C[C@H](NC(=O)C[C@H]1CC[C@H]2[C@@H](COC[C@@H](O)CN2Cc2ccc(C(F)(F)F)cc2)O1)c1ccccc1	-12.44
C[C@H](CO)N1C[C@H](C)[C@H](CN(C)C(=O)c2ccccc2)OCc2ccccc2-c2ccccc2C1=O	-8.935
CN1c2ccc(-c3cccc(C#N)c3)cc2[C@@H]2[C@@H](CCN2S(=O)(=O)c2ccccc2F)[C@@H]1CO	-4.7
O=C(C[C@H]1CC[C@H](NC(=O)c2ccc3c(c2)OCO3)[C@H](CO)O1)NCc1ccc(Oc2ccccc2)cc1	-8.589
Cc1ccccc1-c1ccc(C2[C@@H]3CN(C(=O)NC4CCCCC4)C[C@H]2N3)cc1 (some centres unmarked)	18.12
C[C@H]1CN([C@@H](C)CO)C(=O)c2c(c3ccccc3n2C)-c2ccccc2CO[C@@H]1CN(C)C(=O)[C@H](Cc1ccccc1)N(C)C	3.74
CCCNC(=O)N1CC(=O)N2[C@@H](CO)[C@H](c3ccc(C#Cc4cccc(F)c4)cc3)[C@@H]2C1	-0.1308
O=C(c1ccc2c(c1)OCO2)N1CC(=O)N2[C@@H](CO)[C@@H](c3ccc(C#CC4CCCC4)cc3)[C@@H]2C1	1.757
C[C@@H]1CN([C@@H](C)CO)C(=O)c2c(c3ccccc3n2C)-c2ccccc2CO[C@@H]1CN(C)S(=O)(=O)c1ccc(C(F)(F)F)cc1	-3.928
C[C@H]1CN([C@@H](C)CO)C(=O)c2c(c3ccccc3n2C)-c2ccccc2CO[C@H]1CN(C)Cc1cccc2c1OCCCO2	-16.08
O=C(Cc1ccccc1)N1CC[C@@H]2[C@H]1c1cc(-c3ccccc3)ccc1N[C@@H]2CO	11.79
C[C@H]1CN([C@@H](C)CO)C(=O)c2ccccc2-c2ccccc2CO[C@H]1CN(C)Cc1ccc(F)cc1	-5.537
C[C@H](CO)N1C[C@H](C)[C@@H](CN(C)C(=O)Cc2ccccc2)OCc2ccccc2-c2c(n(C)c3ccccc23)C1=O	-17.36
CCCNC(=O)N1CC[C@@H]2[C@H]1c1cc(C#Cc3ccc(OC)cc3)ccc1N(C)[C@@H]2CO	-17.41
C[C@H](CO)N1C[C@H](C)[C@@H](CN(C)C(=O)Nc2cccc(F)c2)OCc2ccccc2-c2c(n(C)c3ccccc23)C1=O	-8.871
COc1cccc(S(=O)(=O)N2CC3(CN(C(=O)Nc4ccc(F)cc4)[C@H](CO)c4[nH]c5cc(OC)ccc5c43)C2)c1	-9.322
CCC(=O)N1CC[C@@H]2[C@H]1c1cc(C#Cc3cccc(F)c3)ccc1N(C)[C@H]2CO	-15.58
COc1ccc(NC(=O)Nc2ccc3c(c2)[C@@H]2C[C@@H](CC(=O)N[C@@H](C)c4ccccc4)O[C@@H](CO)[C@@H]2O3)cc1	-8.267
C[C@@H]1CN([C@H](C)CO)C(=O)c2c(c3ccccc3n2C)-c2ccccc2CO[C@@H]1CN(C)C(=O)Nc1cccc(Cl)c1Cl	-21.84
COc1ccccc1NC(=O)N1CC[C@@H]2[C@H]1c1cc(-c3ccc(F)cc3)ccc1N(C)[C@H]2CO	20.69
Cc1ccccc1S(=O)(=O)N1CCCCN2[C@H](CO)[C@H](c3ccc(C#CCN(C)C)cc3)[C@@H]2C1	0.4405
COc1ccc2c3c(n(C)c2c1)[C@@H](CO)N(CC1CCOCC1)CC31CN(C(=O)c2cccc(F)c2)C1	-15.88
COc1ccc2c3c([nH]c2c1)[C@@H](CO)N(CC1CC1)CC31CCN(C(=O)c2ccccc2F)CC1	-0.7991
COc1cccc(CN(C)C[C@H]2OCc3ccccc3-c3c(n(C)c4ccccc34)C(=O)N([C@@H](C)CO)C[C@@H]2C)c1	-4.52
COCC(=O)N1CC2(CCN(Cc3ccc(Cl)cc3)CC2)c2c([nH]c3cc(OC)ccc23)[C@H]1CO	14.71
O=C(C[C@H]1CC[C@H]2[C@@H](COC[C@H](O)CN2Cc2cc(F)ccc2F)O1)NCc1ccc(Cl)cc1	-9.856
O=C(NCC1CC1)[C@@H]1[C@@H](CO)[C@@H]2Cn3c(ccc(-c4cccnc4)c3=O)[C@H]1N2C(=O)C1CC1	-17.61

The last 4 entries again:

* COc1cccc(CN(C)C[C@H]2OCc3ccccc3-c3c(n(C)c4ccccc34)C(=O)N([C@@H](C)CO)C[C@@H]2C)c1 : Gaussia minus Italica difference -4.52%
* COCC(=O)N1CC2(CCN(Cc3ccc(Cl)cc3)CC2)c2c([nH]c3cc(OC)ccc23)[C@H]1CO : Gaussia minus Italica difference 14.71%
* O=C(C[C@H]1CC[C@H]2[C@@H](COC[C@H](O)CN2Cc2cc(F)ccc2F)O1)NCc1ccc(Cl)cc1 : Gaussia minus Italica difference -9.856%
* O=C(NCC1CC1)[C@@H]1[C@@H](CO)[C@@H]2Cn3c(ccc(-c4cccnc4)c3=O)[C@H]1N2C(=O)C1CC1 : Gaussia minus Italica difference -17.61%